From PubChem BioAssay AID1347426 (Functional Genomics Laboratory (NCATS/FGL), 2020)
In all, about 31,000 sequences went through this assay and about 1,400 (4.5%) were called active.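 How the source made its calls: active means median seed-adjusted z-score above 1 or below -1; inactive means the rest.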 The list shows a part of the results.

Assay: Novel Modifiers of Survival Motor Neuron (SMN) Protein: Gene Identification via Genome-wide siRNA Screen;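 further: luminescence tracks full-length SMN protein made from the SMN2 reporter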
Details: HEK293T SMN2-luciferase reporter, siRNA knockdown, 72 h; actives lie on both sides
Outline: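 siRNA screen, 10418 genes ×3 siRNAs; 1 pmol/well, lipid reverse transfection into HEK293T SMN2-luc reporter line. 72 h, 37 °C, 5% CO2; ONE-Glo readout. Data: neg-ctrl normalized, log10, MAD; hit = MAD >1.0 or < -1.0.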

Sequence | median seed-adjusted z-score
ACCCAACUCUUACUCUUAATT against RNF7 | active: -1.18
CCAGCAUAGCAUAAUCCAATT against ZNF233 | inactive: 0.59
CCAUUUCCAGAGGCCCAGATT against SLC22A12 | inactive: -0.148
AGACAUCAGAAUUUACUGATT against CHGA | inactive: -0.0235
GGCUGUUCCUGAGACUGCATT against DMAP1 | inactive: 0.342
GGAGCUUCUUAACAGCGAUTT against CIITA | inactive: -0.109
GGUCCAGCAUAGUUUAUCATT against RRAGB | inactive: 0
CGGCUGAGCAGAUCUCAGATT against SCO2 | inactive: 0.848
GCUGUGGAUUGUCCAACAATT against NPY5R | inactive: 0.213
AGAAGAAGAUCGUCCAGGATT against FGD2 | inactive: 0.0293
CACACCAGAUUGUAGAAAATT against SLC24A5 | inactive: -0.166
GAGUUUGCACAGUCAGUAATT against TBC1D23 | inactive: 0.0932
ACGACUGCCUGGUCUUAAATT against ADAP2 | active: -1.1
CGUGAACACUAUGAGCGGATT against MAP3K13 | inactive: -0.121
GCUUCAAUCUUUCUCGUAUTT against C10orf2 | inactive: 0.31
GGAGAUACCUCAGUGCACATT against CPT2 | inactive: 0.542
CUAGUUUAAUAAAGAUUCATT against APOE | inactive: 0.0321
CCAUCGUCCAUGAGAUCGATT against KCNJ14 | inactive: -0.526
CAAUCUUGGAUGCACUAAATT against MALT1 | inactive: 0.442
GCUUCGCCCUUGCUUGUAATT against RFC2 | inactive: 0.00126
GCAGAGCAAUGGGAGAGAATT against EPHB4 | inactive: -0.143
CCCAAUUUAUUGAAAGUGATT against SLC2A4RG | inactive: -0.0232
GGCUGAAAUUGUAACCCUATT against TPD52L3 | inactive: 0.552

Sequence | median seed-adjusted z-score
CUACUACGAUGCCUACCAATT against CLDN2 | inactive: 0.865
CCAUGAAGCUUUGAGUGAATT against EEF1A1 | inactive: -0.755
CAGCAGAUUGUGAAUCUGATT against MLLT1 | inactive: -0.086
UGUGAACCGCGCCUACUUUTT against PPM1F | inactive: -0.231
CAUCUAUGGUUUCUACGAUTT against PPP1CA | inactive: 0.115
GCAUAGUCCAGUUUUAUUATT against MTA2 | inactive: 0.947
CCUUACCACUACUUUGAGATT against ST6GALNAC4 | inactive: -0.39
GGUAGUCUAUCACUUCGAATT against TRIM37 | inactive: -0.108
CCUUCGCUAUGAUGGAGCATT against HPN | inactive: -0.0237
CAGUUUCUCAUGAUCGAGATT against RASSF9 | inactive: 0.314
AAAAUGGAAUUCUAAGUUATT against DMRTA2 | inactive: 0.252
GGAAAACUGCGGCUGCAAATT against AP1S1 | active: -1.04
GAUCGUUCAUAAUGGAGAATT against ZFP14 | inactive: 0.263
GAAUUGUAGUGGAUGAAAATT against CHFR | inactive: -0.673
GCCUCCUACUCAGCGUAUATT against PCDHGA8 | inactive: 0.00691
GGCACCAAUUGGAUAUUCUTT against SLC5A7 | inactive: 0.624
GGCUCAAGGAGAUCGUUUATT against ARNT | inactive: -0.244
GCUUCAUGAUUGUCUACAATT against ELOVL1 | inactive: 0.564
CCAAGAGUGAUGCAGAGGATT against CABP4 | inactive: 0.146
CAAUCUCCGGAGGCACGAATT against MAZ | inactive: 0.316
GAAUAACUGCUGCUUGUAATT against TTRAP | inactive: -0.33
GGAAGAGACUUUGUCCACATT against BIRC7 | active: -1.44
CUACUGGACUGAUCAAGCUTT against CTCFL | inactive: -0.362

An excerpt of these results, as a markdown table:

| Sequence | median seed-adjusted z-score |
| --- | --- |
| CCAUUUCCAGAGGCCCAGATT against SLC22A12 | inactive: -0.148 |
| AGACAUCAGAAUUUACUGATT against CHGA | inactive: -0.0235 |
| CGGCUGAGCAGAUCUCAGATT against SCO2 | inactive: 0.848 |
| GCUGUGGAUUGUCCAACAATT against NPY5R | inactive: 0.213 |
| CACACCAGAUUGUAGAAAATT against SLC24A5 | inactive: -0.166 |
| GAGUUUGCACAGUCAGUAATT against TBC1D23 | inactive: 0.0932 |
| ACGACUGCCUGGUCUUAAATT against ADAP2 | active: -1.1 |
| CGUGAACACUAUGAGCGGATT against MAP3K13 | inactive: -0.121 |
| GCUUCAAUCUUUCUCGUAUTT against C10orf2 | inactive: 0.31 |
| CUACUACGAUGCCUACCAATT against CLDN2 | inactive: 0.865 |
| CCAUGAAGCUUUGAGUGAATT against EEF1A1 | inactive: -0.755 |
| CAGCAGAUUGUGAAUCUGATT against MLLT1 | inactive: -0.086 |
| CCUUACCACUACUUUGAGATT against ST6GALNAC4 | inactive: -0.39 |
| CAGUUUCUCAUGAUCGAGATT against RASSF9 | inactive: 0.314 |
| GGAAAACUGCGGCUGCAAATT against AP1S1 | active: -1.04 |
| GAUCGUUCAUAAUGGAGAATT against ZFP14 | inactive: 0.263 |
| GCUUCAUGAUUGUCUACAATT against ELOVL1 | inactive: 0.564 |
| CAAUCUCCGGAGGCACGAATT against MAZ | inactive: 0.316 |
| GGAAGAGACUUUGUCCACATT against BIRC7 | active: -1.44 |

(listing goes on)

Sequence | median seed-adjusted z-score
GAUACACUUUGUCACCAAATT against FLT3LG | inactive: -0.166
GGGUGGAUCUAUGACAUCATT against SLC16A14 | inactive: 0.464
GGAUGUUAUUUACGCUCGATT against PTPN13 | inactive: 0.0682
GGUUUACUCUUAUCUGACUTT against RARS2 | inactive: -0.0247
CGAGAAAUCCCACAAGCGATT against NOVA2 | inactive: 0
GGAUGUGGACAACAAAGUATT against SARS | inactive: 0.377
AUUCAUCUCAUAAACAAAATT against BATF2 | inactive: 0.714
UAAUCUACGUGGUCUGAGATT against ZCCHC3 | inactive: -0.849
GAUCUGAUGUUAGUACAUATT against B3GNT2 | inactive: -0.0427
CCUUUAUGGUGGUGAAUGATT against HSPA8 | inactive: 0.462
CUCGGAAGAUGGUACGAAATT against APOD | inactive: -0.115
GGCCGGUGUUUGACGACAATT against STK32C | inactive: -0.311
AAUGAGUACUGGAGAUUGATT against S100A13 | inactive: 0.153
CCAAUAACCAGGAUUUUAATT against PPM1A | inactive: 0.0153
GGAUAAUUGCUGCAAGAGATT against TRAF3 | inactive: 0.731
GCAAGGAUAUUAUACAGCATT against GALNT3 | inactive: -0.0426
GACCAACAUUGAUAGCUCATT against ITGA7 | inactive: 0.13
GAUUUUCACUUGCAACUCATT against PDP2 | inactive: -0.0726
GGUAGCUUCUGAUAAUGAUTT against LEO1 | active: 1.2
GCAAUGGUGUGACGCAGAATT against NANOG | inactive: -0.106
AGAGGAUUAUGACAUGGAATT against SERPINB9 | inactive: 0
GAAUUACCUUUCUGAAAUATT against SLC23A1 | inactive: 0.904
